Experimental data taken from paper PMC4327974.

Tested on: T1, CrdR (Agrobacterium sp. ATCC31749)
T1 sequence (looked up): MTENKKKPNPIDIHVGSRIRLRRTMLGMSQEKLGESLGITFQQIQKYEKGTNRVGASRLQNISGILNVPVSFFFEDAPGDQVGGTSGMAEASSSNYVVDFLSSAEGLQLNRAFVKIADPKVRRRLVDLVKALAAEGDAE
Experiment: EMSA
Conditions: 4x EMSA buffer (15 mM HEPES, 100 mM NaCl, 1 mM EDTA, 5 mM MgCl2, 10% glycerol, 1 ug/mL poly dI-dC), 10 uL protein + 10 uL 0.5 uM DNA in water, room temperature 30 min, recombinant protein, residues 1-139, protein details: N-terminal 6xHis, probe letters rebuilt from the primers and the genome

[1] = 0.5 mg/mL CrdR, binds, smaller shift than crdP98

Row | Sequence | binding result (0.25 mg/mL CrdR) | further results
1 | ACCCGGTCTATCCCATGAAGACGGACGATGTGCCGATGCGGCCGGGCGGCGAGGTGACGGCCAGTGTGCCGCCCCGGCCAGCCCGCAGCGTGACGGTCGCCGCGCCCGCGCAGCCGGAACCACAGCCGCTGCCGCCCGTTGCGGCTGTCAGTATTCCCTCGCCCACATCGGCGGGTGCGCCATCACTGCCTGCGCGACCTTCGGTGGGAGTCAGGCAGGTCGATGGTAGGCAGGTGAATAGCCATCCGGTGGAAAGCGGCCCGCAGCCATCGCAGGTTCCGCAGGTGTCCATTCCCTCGCCAGCTTGTCTCTCCGGTTCGGGAGCGGCACCGGGATGCAGGTGATCGGCGGAACCAGCGGGAAAGGCAGCGCCGAGGCGCATATCACGAAATTTCCGGGCCGAAATTCCGGACGGGGAAGAGAACGGAAAGTTTCTGGATG (double strand) [celAP] | no binding | 
2 | AGGAGTTGATTTCATGCTGTTCCGCAATAAGCCTGACGCAAAATATAAAGGCGCATCCGTAAGATTAGCCTCCTATACTGTTCTCGGTGTGGTGGCGACGGTGTTTTCTTCTTCCGTGTTTCCGCCTGTATTCACCTCTCAAACGAGCCGTGCTCTGATCAATGCCCCCATTATTCCCTTGACGACGCCGATCAGCGGCGTTGTGAAAACATTGAACGACAGGGGTGGTGCCACCATCGAGAACGACAAGGTGGACAATACAACGCTGATCGGTCTGAAGGTTCAACTGGCGGCGCTCGACAATGAGATGCGCCAGAAGAACTCGATCGTTTCGGACTATGCCTCGCGGATCGACGACCTGAACAGGGATCTTTCCAGCCAGCAGGCGGCTTTGCTGCTGCGGACCGA (double strand) [crdP13] |  | binding result [1]: binds more weakly
3 | CATCGCCCTAACCTCGCAGTTGGTCGGCTGCGCGTCGGGTTCCGGGCGCGCATCTGAACATCATTTTTGAAAATGAAGAACTGCCCTGCGGGTATAGGAGTGAACCCGCAGGGCTCGCCCAATCCATGCGGGTGTCAGGATTGAGTTCGCGAAATCTTGGTCTGGGGAACGGGCCCGTTCGCGGCATGCCTTGTGTCATCCAGTTGACGGTTCGGCGCTGCAAGCTCCGGCAGCCGTCCCTGGCGTGGCTGTTCCATTCCCATATAGGCGAAGATCCTGTTCCGCGACGATTCAAGGAGCGCCATGGCTGCCTGCGTGACAGACGGAATCTCCTTCGCGGAGTTCTTCGCATATTGGAGGAGATCAGCGGACGCTTCGTGAACGTAGTTTCGCGTCCTGTCCAGCCATTCGTTTGGCAGGGTCACATTGACCCATGTGCCGACCGA (double strand) [crdSP] | no binding | 
4 | CATGCGGTCCTGACACTCGGAAAGGGTTGATATCTCGTTTCACTACTATTCGAAGAAATGAGTCGGCAATTCGACAGCGTCTAAACTTGTTTTACGACTGACGTATTCACTATGCAATTACAGGGGTTCCCGGTCAATTCTGGCGCCGAGCAAAACTCAAGGCGGGAAATACCGCAACGATCATCAAGATTGAAAAAATCAACCAGAAATACGTCCGATGTGTGTCGTAAGTAAATGCGTCATTAGACCCACCACTCAAAGTGGCGTCAACAATTCCCACCCGACCATAGTCCAGCCCGGCAATAATGCGGCCATAGGGGTCTGTGACGGCGGAAATTCCGGTATTGGCGCCGCGAATCACCGGCACGCCCGTCTCAACGGCGCGTACCCGTGCCTGCAGAAAATGCTGGTAGGGACCGGGTGTATCACCAAACCAGCCGTCATTCGTCACATTTAGGATCGCCGC (double strand) [crdRP] | no binding | 
5 | CCAGATTTCTCAAGGGTCCTCCATCACGGTTGACCGCGACAACGACAAGAACCCGGTCGTGGCGCTTCGCGAAATCGCCGACGAGACGCTGTCTCCCGATGATCTGAAGGAAGACCTCATCCACTCGCTGCAGAAGCATGTGGAAGTGGACGAGCCCGAGCCCGATCCGGTCACGCTCGCCGCCTCCGCTGCCGATGGCGAAGACGATGATCAGCCGGAAACGGTTACTTTCGACCAGATGTCGGAAGAAGAACTGCTGGCCGGTATCGAAGGCCTTGTGCCGCCGGAAAAAAATGACGACTATTGATCCGGTTTTATGATGCCTTTGGCAGGCGGTGGTTACCGTCTGTCAATAGTTGCCGTCATAATCTGATCCCTATTGATGCAGCATTGTGCGCCGACCCCAAGGTTGGCGCGCTTTCTTTTTGTGGAATATCGCATGATG (double strand) [relAP] | no binding | 
6 | CCATTTCAATACTGCGGGAGGAACGGTTTCTCAACAACAGAGGAGTTGATTTCATGCTGTTCCGCAATAAGCCTGACGCAAAATATAAAGGCGCATCCGTAAGATTAGCCTCCTATACTGTTCTCGGTGTGGTGGCGACGGTGTTTTCTTCTTCCGTGTTTCCGCCTGTATTCACCTCTCAAACGAGCCGTGCTCTGATCAATGCCCCCATTATTCCCTTGACGACGCCGATCAGCGGCGTTGTGAAAACATTGAACGACAGGGGTGGTGCCACCATCGAGAACGACAAGGTGGACAATACAACGCTGATCGGTCTGAAGGTTCAACTGGCGGCGCTCGACAATGAGATGCGCCAGAAGAACTCGATCGTTTCGGACTATGCCTCGCGGATCGACGACCTGAACAGGGATCTTTCCAGCCAGCAGGCGGCTTTGCTGCTGCGGACCGA (double strand) [crdP53] |  | binding result [1]: binds more weakly
7 | TCACCAACACCAACTCTGGATTGACGGAGATTGTCGGCAGTCCAGGCACGAAGGCCAAGGTTCCCCCGCCTGCGAGAAGCGCCACGGAAGGGGGCAGTCCCAAGCGATGCGCAATATAATGCAGCACGATAATGGCAAGAAACATCGCGATCACGAGTTCGAAGAGATGCGTGCCGTCCATATGTGTCCCCAATCCAGCTTGGACCGACATCAAATGACGAGTTTTGGGAAAAAGCAACGGCACTTCCATACCGACTTGAGGCGCTAACGCGCTTGCGGTCTGGAACTTGACCTACCCGGCGGTAGGTCTTTGCGACGGCATGCCGTCGCCCCCATAAGTTGCATATGCGAAATGGCGAAGCCAGGGTGTGTTTTCCAAGCACGCCATTTAAAAGGCAATTCTAATATGAAACGATTGAAATTTCGTCTTTCAAATTCTCTTCGATGAATTTTCGCGTCCCCAAAATCGTCAGATGCCTATTTGTTGGTCAAAATTGGAAAATTAGTTAATGCAATTTTTACTATGTTGCGGCGCACAAGAACTTCATTCACCATTTCAATACTGCGGGAGGAACGGTTTCTCAACAACAGAGGAGTTGATTTCATG (double strand) [crdP] |  | binding result (0.25 and 0.5 mg/mL CrdR): binds
8 | TTAATGCAATTTTTACTATGTTGCGGCGCACAAGAACTTCATTCACCATTTCAATACTGCGGGAGGAACGGTTTCTCAACAACAGAGGAGTTGATTTCATGCTGTTCCGCAATAAGCCTGACGCAAAATATAAAGGCGCATCCGTAAGATTAGCCTCCTATACTGTTCTCGGTGTGGTGGCGACGGTGTTTTCTTCTTCCGTGTTTCCGCCTGTATTCACCTCTCAAACGAGCCGTGCTCTGATCAATGCCCCCATTATTCCCTTGACGACGCCGATCAGCGGCGTTGTGAAAACATTGAACGACAGGGGTGGTGCCACCATCGAGAACGACAAGGTGGACAATACAACGCTGATCGGTCTGAAGGTTCAACTGGCGGCGCTCGACAATGAGATGCGCCAGAAGAACTCGATCGTTTCGGACTATGCCTCGCGGATCGACGACCTGAACAGGGATCTTTCCAGCCAGCAGGCGGCTTTGCTGCTGCGGACCGA (double strand) [crdP98] |  | binding result (0.25 and 0.5 mg/mL CrdR, greatest shift of 98/53/13): binds

Negatives hold for the conditions tested. Protein sequences can lack the tags named with them. Weaker means in comparison with the reference protein, sequence or condition of that experiment.
